From PubChem BioAssay AID588590 (National Center for Advancing Translational Sciences (NCATS), 2011)
“And” between values parts separate entries of the source, which are not always exact repeats. Identical values can stand only once. The campaign covered roughly 390,000 compounds. About 4,000 (1%) were called active. The inconclusive results got no clear call from the source; some entries with a clear call stand among them for comparison. Calls follow the shape of the dose curve; as a rule, active = well fitted inhibition curve with a large enough effect; inconclusive = small, poorly fitted or top-dose-only effect, or another doubt; inactive = no such curve, though single readings can be large or run the other way. Potencies beside an inconclusive call are fits to weak or partial responses and may not hold up.

The chains behind the UniProt entries cited, without tags or fusion partners. Where a name states a change or a piece, a line headed by the entry shows the natural chain unless it says otherwise.
UniProt Q9UNA4: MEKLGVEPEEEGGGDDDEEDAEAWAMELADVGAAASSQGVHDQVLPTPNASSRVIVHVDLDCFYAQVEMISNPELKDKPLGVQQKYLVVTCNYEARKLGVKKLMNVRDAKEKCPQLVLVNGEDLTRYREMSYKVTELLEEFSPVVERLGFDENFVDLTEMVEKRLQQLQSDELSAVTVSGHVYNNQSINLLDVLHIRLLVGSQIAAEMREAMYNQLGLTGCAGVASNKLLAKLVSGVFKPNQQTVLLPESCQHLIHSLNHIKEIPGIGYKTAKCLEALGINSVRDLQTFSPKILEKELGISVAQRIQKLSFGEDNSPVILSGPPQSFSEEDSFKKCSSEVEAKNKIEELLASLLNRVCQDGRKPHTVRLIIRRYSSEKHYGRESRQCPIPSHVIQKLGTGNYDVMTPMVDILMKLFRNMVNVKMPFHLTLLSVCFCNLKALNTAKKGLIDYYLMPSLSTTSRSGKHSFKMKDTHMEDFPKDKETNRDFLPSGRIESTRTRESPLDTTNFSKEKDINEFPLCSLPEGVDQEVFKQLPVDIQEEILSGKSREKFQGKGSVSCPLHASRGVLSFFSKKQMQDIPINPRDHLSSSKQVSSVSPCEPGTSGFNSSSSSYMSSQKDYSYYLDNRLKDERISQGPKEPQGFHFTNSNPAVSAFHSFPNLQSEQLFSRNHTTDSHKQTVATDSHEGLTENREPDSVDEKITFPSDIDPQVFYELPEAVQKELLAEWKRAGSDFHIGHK

Each compound was assayed against DNA polymerase iota (Homo sapiens) (UniProt Q9UNA4) (assay: qHTS for Inhibitors of Polymerase Iota). Conditions: Pol iota fluorescent replication assay, 10 min; series mostly up to 115 µM; activity, negative = inhibition: at the top concentration.
Outline: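 Fluorescent replication assay read twice, at 0 min and 10 min after adding 50 nM (final) substrate. Enzyme (10 nM) and compounds were first incubated 15 min at room temperature; enzyme-free buffer wells were negative controls.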
Potency is read from the fitted curve at half-maximal effect.

activity, negative = inhibition, inactive:
CC(C)(C)N/N=C1\CC(c2ccccc2)Oc2ccccc21 (stereo unspecified) 34.8%, CCCN1Cc2cccc(C(=O)N3CCN(c4ccc(OC)cc4)CC3)c2C1=O 8.92%, COc1ccc(Cn2c(=O)[nH]c3cc(C(=O)N4CCN(c5ccc(C(C)=O)cc5)CC4)ccc3c2=O)cc1 143%, O=c1c2oc3ccccc3c2n(Cc2cccc(C(F)(F)F)c2)c(=O)n1Cc1ccc2c(c1)OCO2 50.8%, CC(C)Sc1ncc(Cl)c(C(=O)Nc2ccc(S(=O)(=O)N3CCCCC3C)cc2)n1 (stereo unspecified) -19.4%, CN(Cc1cn(-c2ccccc2)nc1-c1cc2ccccc2o1)C(=O)CCC(=O)O 32.3%, O=C(NCCc1ccccc1)c1ccc(CSc2nc3ccncc3n2Cc2ccccc2)cc1 29.9%, Cc1cc2cc(CCNC(=O)c3cccc([N+](=O)[O-])c3)c(=O)[nH]c2cc1C 12.2%, CCc1ccc(C(=O)NC2=NC(c3ccccc3F)CC(=O)N2)cc1 (stereo unspecified) 1.75%, Cc1nnc(SCc2c(Cl)cccc2Cl)s1 5.56%, O=C(CSc1nnc2c(n1)[nH]c1ccccc12)N1CCCCC1 -11.7%, COC(=O)c1cc2oc3ccccc3c2n1CC(=O)Nc1ccc(C)cc1C -13.4%, Cc1ccc(-c2noc(-c3nnn(CC(=O)Nc4cc(Cl)ccc4C)c3N)n2)cc1 12.2%

Potency, active:
CCC(c1ccc(O)c(O)c1)C(CC)c1ccc(O)c(O)c1 (stereo unspecified) 17.8 µM, O=C(Nc1ccc(C2=NCCN2)cc1)c1ccc(C(=O)Nc2ccc(C3=NCCN3)cc2)c([N+](=O)[O-])c1 10 µM

Potency, inactive:
COc1ccc(C2CC(c3ccccc3)Oc3cc(C)cc(C)c32)cc1 (stereo unspecified)

Potency, inconclusive:
Cn1c2ccccc2c2cnn(CC(=O)Nc3ccccc3Br)c(=O)c21 2.82 µM [inhibitor, full curve, poor fit], COc1ccc(CNC(=O)CCCn2c(SCC#N)nc3cc4c(cc3c2=O)OCO4)cc1 89.1 µM [inhibitor, single point], CC[C@]1(C(=O)OC)[C@H]2C(=O)N(Cc3ccccc3)C(=O)[C@H]2[C@H]2CN=C(SCC3CC3)N21 3.98 µM [inhibitor, partial curve, poor fit], CC(C)(C)NC(=O)CN(Cc1cccs1)C(=O)CN1C(=O)C(=O)c2ccccc21 10 µM [inhibitor, partial curve, poor fit], CN(C(=O)c1cccc(NC(=O)Cc2ccc(NC(=O)C3CCN(C(=O)C4CCC4)CC3)cc2)c1)C1CCCC1 56.2 µM [inhibitor, partial curve, poor fit], CC(C(N)=O)N1c2cccc3cccc(c23)S1(=O)=O (stereo unspecified) 1.78 µM [inhibitor, partial curve, poor fit], COc1ccc2c(C(=O)CCl)c[nH]c2c1 28.2 µM [inhibitor, partial curve, poor fit], COc1ccc(OC(C)C(=O)NCc2nc(-c3ccc(Cl)cc3)no2)cc1 (stereo unspecified) 89.1 µM [inhibitor, partial curve, poor fit], CCOC(=O)c1ccc2ncc(C(=O)OCC)c(Nc3ccc(C)c(Br)c3)c2c1 89.1 µM [inhibitor, single point], O=C(CCl)N(Cc1cc(=O)[nH]c2ccccc12)c1ccccc1 15.8 µM [inhibitor, partial curve, poor fit], NS(=O)(=O)c1ccc(NC(=O)c2ccc(S(=O)(=O)N3CCc4ccccc43)cc2)cc1 10 µM [inhibitor, partial curve, poor fit], O=C(O)c1ccc(N2C(=O)CC(N3C(=O)/C(=C/c4ccc(Cl)cc4)SC3=S)C2=O)cc1 (stereo unspecified) 12.6 µM [inhibitor, full curve, poor fit], Oc1cccc(/C=N/NC(=S)NCCN2CCOCC2)c1O 79.4 µM [inhibitor, single point], O=C(Nc1c(C(=O)Nc2cccc(F)c2)oc2ccccc12)c1ccc2c(c1)OCO2 70.8 µM [inhibitor, partial curve, poor fit], CCSc1nc2sc3c(c2c(=O)[nH]1)CCc1ccccc1-3 8.91 µM [inhibitor, full curve, poor fit], O=C(CCCC(=O)N(CC(=O)NC1CCCCC1)Cc1ccccc1)Nc1ccccn1 11.2 µM [inhibitor, single point], COc1ccc(C2CC(c3ccccc3)Oc3c(C)ccc(C(C)C)c32)cc1 (stereo unspecified) 100 µM [inhibitor, single point], OC/C(Br)=C(\Br)CO 39.8 µM [inhibitor, single point], CC(=O)c1ccc(NC(=O)C2CCCN(S(=O)(=O)c3c(C)[nH]c(=O)[nH]c3=O)C2)cc1 (stereo unspecified) 70.8 µM [inhibitor, partial curve, poor fit], Cc1ccccc1NC(=O)NCC1CCN(C(=O)OC(C)(C)C)CC1 8.91 µM [inhibitor, partial curve, poor fit], O=C(CN1CCN(c2ccc(O)cc2)CC1)NC(c1ccccc1)c1ccccc1 44.7 µM [inhibitor, partial curve, poor fit], CCCCN1C(=O)/C(=c2\sc3nc(=O)c(-c4ccccc4)nn3c2=O)c2ccccc21 35.5 µM [inhibitor, single point], CSc1cccc(NC(=O)CSc2ccccc2)c1 20 µM [inhibitor, partial curve, poor fit], O=C(Nc1ccc(Cl)cc1)N1CCC(c2nc(-c3ccccc3Cl)no2)CC1 100 µM [inhibitor, partial curve, poor fit], COCCCNC(=O)c1ccc2nc(CCc3ccccc3)oc2c1 89.1 µM [inhibitor, single point], CC(CC(=O)Nc1ccc(Cl)c(S(=O)(=O)N2CCOCC2)c1)c1ccccc1 (stereo unspecified) 2.51 µM [inhibitor, partial curve, poor fit], CN1C(=O)/C(=C/c2ccco2)SC1=Nc1cccc(C(=O)O)c1 7.94 µM [inhibitor, full curve, poor fit], Cc1cc(C)c(NC(=O)Cn2c(=O)n(Cc3ccc(C(=O)NCc4ccco4)cc3)c(=O)c3sccc32)c(C)c1 31.6 µM [inhibitor, full curve], CCC(C)c1ccc(O)c(/C=N/O)c1 (stereo unspecified) 3.98 µM [inhibitor, full curve, poor fit], O=C(C[C@@H]1C/C=C\C[C@@H](Cc2ccc(F)cc2)C(=O)OC[C@@H](Cc2c[nH]c3ccccc23)NC1=O)NCCO 11.2 µM [inhibitor, single point], COc1ccc(Cl)cc1Nc1nc(C)nc2c1oc1ccccc12 8.91 µM [inhibitor, partial curve, poor fit], O=C(NCc1ccco1)C(=O)NCC1OCCN1S(=O)(=O)c1ccc(F)cc1 (stereo unspecified) 79.4 µM [inhibitor, single point], CCOc1ccc(N(C(C)C(=O)NCc2ccco2)S(C)(=O)=O)cc1 (stereo unspecified) 56.2 µM [inhibitor, partial curve, poor fit], Clc1cccc(CNc2ncnc3nc[nH]c23)c1 3.55 µM [inhibitor, partial curve, poor fit], CC(=O)Nc1ccc(NC(=O)CSc2nc(N)c(NC(=O)c3ccco3)c(=O)[nH]2)cc1 63.1 µM [inhibitor, partial curve, poor fit], CCc1cc2c(SCc3nc4sc(C(C)=O)c(C)c4c(=O)[nH]3)ncnc2s1 14.1 µM [inhibitor, full curve], CCN1CCN(c2cc(C)c3cc(NC(=O)c4ccc(OC)c(OC)c4)ccc3n2)CC1 25.1 µM [inhibitor, single point] and 28.2 µM [inhibitor, full curve], CCOc1ccc(C(=O)C(CN2CCOCC2)c2ccccc2)cc1 (stereo unspecified) 79.4 µM [inhibitor, single point], COc1ccc(/C=N/Nc2nc(N3CCCC3)nc(N3CCCC3)n2)cc1 89.1 µM [inhibitor, partial curve], Cc1cc(C(=O)Nc2sccc2C(N)=O)c(C)o1 17.8 µM [inhibitor, full curve, poor fit], CCN(c1ccccc1)S(=O)(=O)c1cc(C(=O)OC(C)C(=O)Nc2ccc3c(c2)OCCO3)ccc1C (stereo unspecified) 50.1 µM [inhibitor, partial curve, poor fit], CSc1cccc(NC(=O)CSc2ccc(C)cc2)c1 28.2 µM [inhibitor, single point], Cc1ccc(CSc2nc3cccnc3n2Cc2ccc(C(=O)NCCc3cccs3)cc2)cc1 89.1 µM [inhibitor, partial curve, poor fit], CC(C)c1ccc(CN(C(=O)C2COc3ccccc3O2)C2CCS(=O)(=O)C2)cc1 (stereo unspecified) 79.4 µM [inhibitor, partial curve, poor fit], Cc1cc(Br)cc(/C=N/NC(=O)c2ccc3c(c2)OCO3)c1O 70.8 µM [inhibitor, partial curve, poor fit]
